According to PMC7868385:
Results are given in words; binding and its absence hold for the method and conditions named. For some assays here: Binding seen in cells or lysates may run through a third protein. Some binding calls cover weakened binding; strength is not graded here. For some assays here: Sequences can lack the tags named with a protein.

Chains of the proteins cited; added tags and fusions are not shown. Residues count along the entry.
UniProt P0A9P0: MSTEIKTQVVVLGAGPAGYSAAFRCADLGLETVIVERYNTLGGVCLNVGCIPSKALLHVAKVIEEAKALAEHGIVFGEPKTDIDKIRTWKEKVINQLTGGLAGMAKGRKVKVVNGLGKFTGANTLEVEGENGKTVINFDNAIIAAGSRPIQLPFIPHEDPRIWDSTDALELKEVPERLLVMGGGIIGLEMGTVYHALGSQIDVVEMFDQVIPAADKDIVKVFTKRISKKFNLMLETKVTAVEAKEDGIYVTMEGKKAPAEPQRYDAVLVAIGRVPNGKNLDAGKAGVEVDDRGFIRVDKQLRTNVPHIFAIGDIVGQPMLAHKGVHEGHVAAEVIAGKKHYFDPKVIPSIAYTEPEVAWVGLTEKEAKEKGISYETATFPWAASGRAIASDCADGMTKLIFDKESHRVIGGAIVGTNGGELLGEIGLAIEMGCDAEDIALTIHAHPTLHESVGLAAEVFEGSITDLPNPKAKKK
UniProt P08603, residues 19-1231: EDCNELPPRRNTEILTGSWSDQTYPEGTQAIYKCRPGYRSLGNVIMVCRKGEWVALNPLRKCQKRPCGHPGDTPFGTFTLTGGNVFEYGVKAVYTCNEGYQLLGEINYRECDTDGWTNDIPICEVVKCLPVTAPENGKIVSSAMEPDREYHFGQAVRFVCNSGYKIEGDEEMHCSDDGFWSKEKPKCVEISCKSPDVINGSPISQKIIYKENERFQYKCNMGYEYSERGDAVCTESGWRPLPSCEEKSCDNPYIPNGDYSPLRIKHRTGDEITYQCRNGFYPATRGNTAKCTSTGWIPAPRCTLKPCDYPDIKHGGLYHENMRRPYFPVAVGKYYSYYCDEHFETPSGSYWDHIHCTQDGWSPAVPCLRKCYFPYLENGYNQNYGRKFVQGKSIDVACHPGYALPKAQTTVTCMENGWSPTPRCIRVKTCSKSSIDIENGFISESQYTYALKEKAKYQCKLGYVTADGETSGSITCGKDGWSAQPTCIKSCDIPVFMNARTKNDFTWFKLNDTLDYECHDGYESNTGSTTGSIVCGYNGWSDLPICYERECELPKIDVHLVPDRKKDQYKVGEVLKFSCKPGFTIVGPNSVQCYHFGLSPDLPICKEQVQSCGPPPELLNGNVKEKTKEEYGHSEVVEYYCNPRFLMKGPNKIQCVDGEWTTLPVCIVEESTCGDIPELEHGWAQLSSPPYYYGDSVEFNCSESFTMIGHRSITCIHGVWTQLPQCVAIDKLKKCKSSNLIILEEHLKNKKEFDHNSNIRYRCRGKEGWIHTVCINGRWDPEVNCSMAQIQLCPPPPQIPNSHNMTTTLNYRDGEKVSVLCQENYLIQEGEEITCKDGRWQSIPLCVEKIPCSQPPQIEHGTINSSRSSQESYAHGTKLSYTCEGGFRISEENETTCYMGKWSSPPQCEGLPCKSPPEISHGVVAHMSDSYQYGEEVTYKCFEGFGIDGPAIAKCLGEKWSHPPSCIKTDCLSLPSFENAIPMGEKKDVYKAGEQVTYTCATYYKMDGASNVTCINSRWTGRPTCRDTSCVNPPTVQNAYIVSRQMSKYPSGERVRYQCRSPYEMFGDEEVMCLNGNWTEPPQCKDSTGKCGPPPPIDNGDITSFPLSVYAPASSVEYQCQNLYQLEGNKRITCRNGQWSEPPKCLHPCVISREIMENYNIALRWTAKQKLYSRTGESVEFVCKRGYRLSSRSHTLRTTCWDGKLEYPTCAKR

Legend:
[1] = molecular target: T1, His-tag recombinant phosphoglycerate kinase (Pgk) (E. coli ExPEC strain RS218) (UniProt P0A799); assay: condition: 0.1, 1.0, 10, and 20 μg/ml coated; 10% human serum; ELISA; His-tag recombinant proteins or BSA (0.1, 1.0, 10, and 20 μg/ml, 100 μl) immobilized on the 96-well plate overnight at 4°C; 10% human serum added, 37°C for 1 h; bound FH detected with anti-FH monoclonal antibody, OD450; only the target purified
T1 sequence: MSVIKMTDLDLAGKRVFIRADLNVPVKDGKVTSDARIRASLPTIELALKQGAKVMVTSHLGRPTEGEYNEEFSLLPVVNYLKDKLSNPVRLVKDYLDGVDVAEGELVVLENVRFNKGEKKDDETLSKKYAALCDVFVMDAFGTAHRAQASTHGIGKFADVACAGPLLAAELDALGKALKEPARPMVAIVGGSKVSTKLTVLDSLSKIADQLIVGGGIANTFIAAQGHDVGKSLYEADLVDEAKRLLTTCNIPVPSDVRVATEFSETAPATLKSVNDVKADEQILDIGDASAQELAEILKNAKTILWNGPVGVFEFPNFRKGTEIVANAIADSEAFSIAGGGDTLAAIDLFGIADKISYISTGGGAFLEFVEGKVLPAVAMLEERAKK

[2] = molecular target: T2, His-tag recombinant fumarate reductase flavoprotein subunit (FrdA) (E. coli ExPEC strain RS218) (UniProt P00363); assay: ELISA; His-tag recombinant proteins or BSA (0.1, 1.0, 10, and 20 μg/ml, 100 μl) immobilized on the 96-well plate overnight at 4°C; 10% human serum added, 37°C for 1 h; bound FH detected with anti-FH monoclonal antibody, OD450; only the target purified
T2 sequence: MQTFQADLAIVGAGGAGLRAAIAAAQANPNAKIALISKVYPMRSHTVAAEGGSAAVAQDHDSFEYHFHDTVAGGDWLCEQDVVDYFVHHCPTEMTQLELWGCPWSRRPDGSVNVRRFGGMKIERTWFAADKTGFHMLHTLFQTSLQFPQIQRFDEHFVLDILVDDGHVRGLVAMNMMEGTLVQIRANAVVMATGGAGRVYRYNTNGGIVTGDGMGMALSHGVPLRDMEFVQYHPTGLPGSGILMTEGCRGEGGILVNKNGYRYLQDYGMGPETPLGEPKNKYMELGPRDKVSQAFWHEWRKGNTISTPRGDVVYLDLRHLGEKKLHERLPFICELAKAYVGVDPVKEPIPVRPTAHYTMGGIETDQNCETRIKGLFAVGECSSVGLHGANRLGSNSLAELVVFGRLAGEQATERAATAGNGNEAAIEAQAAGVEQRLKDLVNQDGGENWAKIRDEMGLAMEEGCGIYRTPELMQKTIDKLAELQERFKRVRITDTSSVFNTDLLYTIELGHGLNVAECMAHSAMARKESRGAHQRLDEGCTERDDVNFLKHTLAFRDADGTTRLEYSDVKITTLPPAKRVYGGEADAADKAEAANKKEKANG

[3] = molecular target: His-tag recombinant dihydrolipoamide dehydrogenase (LpdA) (E. coli ExPEC strain RS218) (UniProt P0A9P0); assay: as above
[4] = molecular target: T3, His-tag recombinant phosphoenolpyruvate synthase (PpsA) (E. coli ExPEC strain RS218) (UniProt P23538); assay: as above
T3 sequence: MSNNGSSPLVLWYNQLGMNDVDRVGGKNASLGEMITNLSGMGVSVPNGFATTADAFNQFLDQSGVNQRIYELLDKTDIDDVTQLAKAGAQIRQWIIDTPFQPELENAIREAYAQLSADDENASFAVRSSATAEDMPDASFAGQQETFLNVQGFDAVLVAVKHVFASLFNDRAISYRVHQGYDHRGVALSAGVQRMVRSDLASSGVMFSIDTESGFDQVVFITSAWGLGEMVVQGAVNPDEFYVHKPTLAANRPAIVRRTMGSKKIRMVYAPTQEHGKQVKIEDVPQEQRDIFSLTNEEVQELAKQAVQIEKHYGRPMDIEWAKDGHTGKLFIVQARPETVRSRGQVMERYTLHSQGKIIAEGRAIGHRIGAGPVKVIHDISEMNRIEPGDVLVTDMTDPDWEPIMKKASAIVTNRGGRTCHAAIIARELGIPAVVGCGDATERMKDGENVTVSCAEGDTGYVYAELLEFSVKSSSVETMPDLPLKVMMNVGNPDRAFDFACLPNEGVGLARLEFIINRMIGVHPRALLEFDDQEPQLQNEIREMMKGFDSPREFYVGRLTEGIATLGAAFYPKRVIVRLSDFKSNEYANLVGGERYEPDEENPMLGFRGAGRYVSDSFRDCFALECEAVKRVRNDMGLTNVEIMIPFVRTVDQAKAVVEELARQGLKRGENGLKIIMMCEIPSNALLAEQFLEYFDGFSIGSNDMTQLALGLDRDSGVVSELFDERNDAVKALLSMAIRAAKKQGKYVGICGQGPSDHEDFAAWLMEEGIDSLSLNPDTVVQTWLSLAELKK

[5] = molecular target: T4, His-tag recombinant fructose-bisphosphate aldolase (FbaA) (E. coli ExPEC strain RS218) (UniProt P0AB71); assay: as above
T4 sequence: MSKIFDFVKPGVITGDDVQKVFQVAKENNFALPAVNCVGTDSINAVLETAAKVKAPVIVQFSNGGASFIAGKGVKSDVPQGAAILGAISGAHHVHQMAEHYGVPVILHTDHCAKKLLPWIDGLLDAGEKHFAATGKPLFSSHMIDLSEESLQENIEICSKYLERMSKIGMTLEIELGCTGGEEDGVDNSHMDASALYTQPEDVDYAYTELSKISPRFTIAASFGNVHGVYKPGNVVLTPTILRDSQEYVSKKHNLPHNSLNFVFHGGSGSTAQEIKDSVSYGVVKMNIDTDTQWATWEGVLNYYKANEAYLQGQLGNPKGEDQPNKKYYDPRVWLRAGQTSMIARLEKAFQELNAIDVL

[6] = molecular target: T5, His-tag recombinant L-lactate dehydrogenase (LDH) (E. coli ExPEC strain RS218) (UniProt P33232); assay: as above
T5 sequence: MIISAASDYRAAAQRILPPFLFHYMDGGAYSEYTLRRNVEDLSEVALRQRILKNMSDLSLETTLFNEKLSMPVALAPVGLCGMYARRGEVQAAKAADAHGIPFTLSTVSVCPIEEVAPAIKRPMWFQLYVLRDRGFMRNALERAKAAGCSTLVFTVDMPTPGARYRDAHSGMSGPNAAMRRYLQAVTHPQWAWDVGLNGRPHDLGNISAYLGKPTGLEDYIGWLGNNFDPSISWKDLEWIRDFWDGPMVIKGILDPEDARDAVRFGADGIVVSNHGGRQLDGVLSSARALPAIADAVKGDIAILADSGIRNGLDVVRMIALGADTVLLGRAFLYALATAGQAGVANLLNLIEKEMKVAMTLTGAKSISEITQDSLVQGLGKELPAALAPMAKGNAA

[7] = molecular target: T6, GST-fusion protein of phosphoenolpyruvate synthase (PpsA) (E. coli ExPEC strain RS218) (UniProt P23538); assay: pull-down; GST tag or GST-fusion protein on glutathione magnetic beads, washed with PBST, incubated with 10% human serum at 37°C for 1 h; Western blotting with anti-FH and anti-GST antibodies; only the target purified
T6 sequence: T3 sequence

[8] = molecular target: T7, GST-fusion protein of fumarate reductase flavoprotein subunit (FrdA) (E. coli ExPEC strain RS218) (UniProt P00363); assay: as above
T7 sequence: T2 sequence

[9] = molecular target: T8, GST-fusion protein of phosphoglycerate kinase (Pgk) (E. coli ExPEC strain RS218) (UniProt P0A799); assay: as above
T8 sequence: T1 sequence

[10] = molecular target: T9, GST-fusion protein of L-lactate dehydrogenase (LDH) (E. coli ExPEC strain RS218) (UniProt P33232); assay: as above
T9 sequence: T5 sequence

[11] = molecular target: GST-fusion protein of dihydrolipoamide dehydrogenase (LpdA) (E. coli ExPEC strain RS218) (UniProt P0A9P0); assay: as above
[12] = molecular target: T10, GST-fusion protein of fructose-bisphosphate aldolase (FbaA) (E. coli ExPEC strain RS218) (UniProt P0AB71); assay: as above
T10 sequence: T4 sequence

[13] = molecular target: T6, GST-fusion protein of phosphoenolpyruvate synthase (PpsA) (E. coli ExPEC strain RS218); assay: FH binding inhibition assay (whole-bacteria ELISA); glutathione magnetic beads coupled with GST-fusion proteins or GST tag (2 μg) co-incubated with ExPEC RS218 (1.0 × 10^7 CFUs) in 10% human serum at 37°C for 1 h; beads removed by a magnet; FH left on the bacteria detected by ELISA, OD450; only the target purified
[14] = molecular target: T7, GST-fusion protein of fumarate reductase flavoprotein subunit (FrdA) (E. coli ExPEC strain RS218); assay: as above
[15] = molecular target: T9, GST-fusion protein of L-lactate dehydrogenase (LDH) (E. coli ExPEC strain RS218); assay: as above
[16] = molecular target: GST-fusion protein of dihydrolipoamide dehydrogenase (LpdA) (E. coli ExPEC strain RS218) (UniProt P0A9P0); assay: as above
[17] = molecular target: T10, GST-fusion protein of fructose-bisphosphate aldolase (FbaA) (E. coli ExPEC strain RS218); assay: as above

Measured: binding

Factor H in human serum (from UniProt P08603 19-1231)
no binding (tested: 10% human serum): [9]
no binding: [1]
binds: all other assays above
